No constants are given. Whether binding was seen depends on the method and setting. In cells and extracts the contact can be indirect. Some entries that bind do so weakly or less than the wild type.

Sequences of proteins named here, by UniProt entry; tags and fusion partners are left off.
UniProt P10361: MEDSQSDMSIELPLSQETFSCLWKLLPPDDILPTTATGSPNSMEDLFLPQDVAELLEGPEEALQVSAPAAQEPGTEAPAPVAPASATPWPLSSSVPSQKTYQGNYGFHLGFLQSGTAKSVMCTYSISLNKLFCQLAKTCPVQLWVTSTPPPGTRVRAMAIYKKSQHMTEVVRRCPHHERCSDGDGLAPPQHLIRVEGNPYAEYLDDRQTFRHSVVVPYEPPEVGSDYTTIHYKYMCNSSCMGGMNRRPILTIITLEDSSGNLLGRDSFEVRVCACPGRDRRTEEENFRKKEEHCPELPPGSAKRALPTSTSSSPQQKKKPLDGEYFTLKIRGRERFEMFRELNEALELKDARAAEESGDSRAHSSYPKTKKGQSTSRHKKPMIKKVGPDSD
UniProt P49950: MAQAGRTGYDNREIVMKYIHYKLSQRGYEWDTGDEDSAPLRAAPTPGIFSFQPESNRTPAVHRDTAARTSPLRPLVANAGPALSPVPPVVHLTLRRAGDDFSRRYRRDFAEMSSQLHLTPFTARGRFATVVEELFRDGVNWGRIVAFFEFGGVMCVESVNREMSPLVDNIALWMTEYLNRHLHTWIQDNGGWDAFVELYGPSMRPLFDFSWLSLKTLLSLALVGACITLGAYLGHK

For the assay, the target named is p53 (rat (endogenous in kidney tissue)) (UniProt P10361). As to the kind of experiment: co-IP; kidney tissue lysate (about 300 ug total protein) incubated overnight at 4°C with anti-P53, precipitated with protein A/G-Plus-Agarose 4 h at 4°C, nonspecific IgG as control; blotted for Bcl-xL and Bcl-2; rats of the sham, 5/6 (A/I), 5/6 (A/I)+SSR and 5/6 (A/I)+Losartan groups.

Consider Bcl-2 (from UniProt P49950 1-236), for which the binding entry is given as “binds”.

For the substance Bcl-xL (from UniProt P53563-1 1-233), the binding result is “binds”.

Values taken from publication PMC7008243.
